From patent publication US20200199681A1, “MDA-7 CANCER THERAPIES AND METHODS OF DETECTING BIOMOLECULES” (VIRGINIA COMMONWEATLH UNIVERSITY, priority 2016, published 2020)
At least one compound was matched to its structure with a doubt left.

Test system: Beclin-1
Assay: beclin-1 expression (Western blotting, real time PCR)
Format: cell-based, human
Details: different cancer cell lines

For `CO[C@H]1C[C@@H]2CC[C@@H](C)[C@@](O)(O2)C(=O)C(=O)N2CCCC[C@H]2C(=O)O[C@H]([C@H](C)C[C@@H]2CC[C@@H](O)[C@H](OC)C2)CC(=O)[C@H](C)/C=C(\C)[C@@H](O)[C@@H](OC)C(=O)[C@H](C)C[C@H](C)/C=C/C=C/C=C/1C` [Rapamycin], the beclin-1 protein levels was “up regulated”.
